Assay results from PubChem BioAssay AID1347076 (National Center for Advancing Translational Sciences (NCATS), 2019).
About 13,000 (3.2%) of roughly 400,000 compounds were called active. Inconclusive means that the source gave no clear call. Such entries were picked first, then a sample of the others. Calls follow the shape of the dose curve; as a rule, active = well fitted cell-killing curve with a large enough effect; inconclusive = small, poorly fitted or top-dose-only effect, or effect the other way; inactive = flat fitted curve, though single readings scatter. A potency beside an inconclusive call is a rough fit, not a confirmed value.

Assay: qHTS assay for MDR1-selective chemotherapeutics: Primary screen using the drug-selected MDR subline cells KB-V1; also: nearly all actives have a fitted effect of over 60% in size
Conditions: KB-V1 MDR cells viability, CellTiter-Glo, 72 h; activity change, negative = cytotoxicity: at 46.1 µM (top of the series)
How it was run: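 Cells of the MDR subline KB-V1 are plated, dosed with compound at multiple concentrations, and incubated 72 h at 37 degrees C; CellTiter-Glo is then added and luminescence read after 10 min.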
% is scaled to controls: 0 for no effect and ±100 for the full control effect; potency is read from the fitted curve at half-maximal effect.

Question: With `COCCNC(=S)NN=C1CCCCC1` as the compound, how does the Potency read?
Answer: inactive

Question: Which Potency does the source give for `CCOc1ccc(-c2n[nH]c(C)c2-c2ccccc2OC)c(O)c1` here?
Answer: inactive

Question: Which Potency does the source give for `O=C(Nc1nccs1)c1cccc(NC(=O)C2CC2)c1` here?
Answer: inconclusive: 16.4 µM [cytotoxic, single point]

Question: For `O=C(COC(=O)CNC(=O)C1CCCCC1)NCc1ccc(Cl)cc1`, which Potency is on record?
Answer: inconclusive: 32.6 µM [rising, single point]

Question: For `COC(=O)c1ccccc1NC(=O)NCCc1ccc(OC)c(OC)c1`, which Potency is on record?
Answer: inconclusive: 13 µM [cytotoxic, partial curve]

Question: Which Potency does the source give for `CCc1nc(SCC(=O)Nc2ccc3c(c2)OCCO3)c2oc3ccccc3c2n1` here?
Answer: active: 20.6 µM

Question: Which Potency does the source give for `CCCc1cc(=O)[nH]c(SCC(=O)N2N=C(c3ccc(Cl)cc3)CC2c2ccco2)n1` (stereo unspecified) here?
Answer: active: 20.6 µM

Question: Which Potency does the source give for `Clc1ccc(N=c2ssnc2Cl)cc1` here?
Answer: active: 20.6 µM

Question: Which activity change, negative = cytotoxicity does the source give for `CC1CCCN(CC(=O)Nc2ccc(S(=O)(=O)N3C(C)CCCC3C)cc2)C1` (stereo unspecified) here?
Answer: inconclusive: 0.625%

Question: For `CCn1c(C)cc(C(=O)CSc2nnc(-c3ccco3)o2)c1C`, which Potency is on record?
Answer: inconclusive: 18.4 µM [cytotoxic, single point]

Question: Which Potency does the source give for `CSCC[C@H](NC(=O)C1=NN(c2c(F)c(F)cc(F)c2F)C(=O)CC1)c1nc2ccccc2[nH]1` here?
Answer: inconclusive: 23.1 µM [rising, partial curve, poor fit]

Question: For `COc1cccc(Cn2nc(C(=O)O)c3ccccc3c2=O)c1`, which Potency is on record?
Answer: inconclusive: 29.1 µM [cytotoxic, single point]

Question: For `COc1ccc(CCNS(=O)(=O)c2ccc3c(c2)CC(C)N3C(=O)C2CC2)cc1OC` (stereo unspecified), which Potency is on record?
Answer: inconclusive: 7.31 µM [cytotoxic, partial curve]

Question: With `Cc1ccccc1Cc1c(C)nc2c(C(=O)N3CCN(Cc4ccc5c(c4)OCO5)CC3)cnn2c1C` as the compound, how does the Potency read?
Answer: active: 8.2 µM

Question: For `Cc1ccc(S(=O)(=O)N2CCN(C(=O)COC(=O)c3c(C)noc3C)CC2)c(C)c1`, which Potency is on record?
Answer: inactive

Question: With `CCOc1ccc(S(=O)(=O)N2CCN(C(=O)CN3C(=O)NC(C)(C)C3=O)CC2)cc1` as the compound, how does the Potency read?
Answer: inconclusive: 10.3 µM [rising, partial curve, poor fit]

Question: For `Cc1ccc(NC(=O)COC(=O)CCC(=O)c2cccs2)c(Br)c1`, which Potency is on record?
Answer: inconclusive: 0.0082 µM [rising, full curve, poor fit]

Question: Which Potency does the source give for `Cc1cccc(C)c1NC(=O)CN(C)C(=O)C(c1ccccc1)c1ccccc1` here?
Answer: inconclusive: 29.1 µM [cytotoxic, single point]

Question: Which Potency does the source give for `COc1ccc(OCC(=O)Nc2ccccc2N2CCCCC2)cc1` here?
Answer: inactive

Question: For `CCN1CCN(S(=O)(=O)c2ccc(Cl)c(C(=O)N(C)CCOc3ccc(Cl)cc3)c2)CC1`, which Potency is on record?
Answer: inconclusive: 5.8 µM [cytotoxic, full curve]

Question: For `CCSc1nc2c(c(=O)n(C)c(=O)n2C)n1Cc1ccc(Cl)cc1`, which Potency is on record?
Answer: active: 13 µM

Question: For `O=C(CCCCn1c(=O)c2ccccc2n(CC(=O)Nc2ccc(F)cc2F)c1=O)NCc1ccccc1Cl`, which Potency is on record?
Answer: inconclusive: 32.6 µM [rising, single point]

Question: Which Potency does the source give for `COc1ccc(CCNC(=O)Cn2nnc(-c3ccc(OC)c(OC)c3)n2)cc1OC` here?
Answer: inconclusive: 16.4 µM [cytotoxic, single point]

Question: For `Cn1c(CSCc2ccc(F)cc2)nnc1SCC(=O)N1CCN(c2ccccc2)CC1`, which Potency is on record?
Answer: active: 16.4 µM

Question: Which Potency does the source give for `C/C(=N\NC(=O)C1(C)CC1(Br)Br)c1ccc([N+](=O)[O-])cc1` (stereo unspecified) here?
Answer: inactive

Question: Which Potency does the source give for `Cc1[nH]c2ccccc2c1C(=O)COC(=O)Cn1cnc2ccccc21` here?
Answer: inactive

Question: Which Potency does the source give for `N/N=C1\CCCc2c1[nH]c1ccc([N+](=O)[O-])cc21` here?
Answer: active: 4.61 µM

Question: With `CCCC[C@@H]1CNC(=O)C(=O)N1CCCc1cc(OC)c(OC)c(OC)c1` as the compound, how does the Potency read?
Answer: inactive

Question: With `Cc1ccc(NC(=O)C(=O)NCCCN2CCCC2=O)cc1` as the compound, how does the Potency read?
Answer: inactive

Question: With `O=C(N/N=C\c1ccc([N+](=O)[O-])o1)C1COc2ccccc2O1` (stereo unspecified) as the compound, how does the Potency read?
Answer: inactive

Question: For `CNC(=O)CSc1nnc(-c2ccccc2F)n1CCc1ccccc1`, which Potency is on record?
Answer: inconclusive: 18.4 µM [cytotoxic, single point]

Question: With `Cc1ccc(S(=O)(=O)N2CCCCC2CCNC(=O)C(=O)NCCc2ccco2)cc1` (stereo unspecified) as the compound, how does the Potency read?
Answer: active: 6.51 µM

Question: Which Potency does the source give for `Cc1ccc(-c2nnn(CCC(=O)N3CCCCC3C)n2)cc1` (stereo unspecified) here?
Answer: inconclusive: 8.2 µM [cytotoxic, partial curve, poor fit]

Question: For `CC(C)C[C@@H](CN1CCC[C@H]1CN1C(=O)C(=O)NC[C@@H]1Cc1ccc(O)cc1)N1C[C@H](Cc2ccc(O)cc2)N(CC2CCCCCC2)C(=O)C1=O`, which Potency is on record?
Answer: inactive

Question: For `O=C(Nc1ccc(N2CCCCCC2)cc1)c1cccc(S(=O)(=O)N2CCOCC2)c1`, which Potency is on record?
Answer: inconclusive: 7.31 µM [cytotoxic, partial curve, poor fit]

Question: For `CCOC(=O)c1c(C)[nH]c(C(=O)COC(=O)[C@H](C)NC(=O)c2ccccc2Cl)c1C`, which Potency is on record?
Answer: inconclusive: 3.66 µM [cytotoxic, partial curve, poor fit]

Question: Which Potency does the source give for `O=c1[nH]c2cccc(Cl)c2n(CCNc2ncc(C(F)(F)F)cc2Cl)c1=O` here?
Answer: inconclusive: 14.6 µM [cytotoxic, single point]

Question: For `Cc1ccc(Cn2c(=O)n(CCc3ccccc3)c(=O)c3c(C)c(C)sc32)cc1`, which Potency is on record?
Answer: inactive

Question: For `C/C(N)=C(/C#N)C(=O)CSc1nc2ccccc2c(=O)n1CCCO`, which Potency is on record?
Answer: inactive

Question: For `Cc1cc(C)c2c(N)c(C(=O)c3cccc(Cl)c3)sc2n1`, which Potency is on record?
Answer: inconclusive: 18.4 µM [cytotoxic, single point]

Question: With `O=C(NCCC1CCCCN1S(=O)(=O)c1ccc(F)cc1)C(=O)NC1CCCC1` (stereo unspecified) as the compound, how does the Potency read?
Answer: inactive

Question: For `CC(C)C[C@@H](COCc1cccc(C(F)(F)F)c1)N1CCN(C(=O)c2ccc(C(F)(F)F)cc2)CCC1=O`, which Potency is on record?
Answer: active: 18.4 µM

Question: For `CC1CCN(S(=O)(=O)c2ccc3c(c2)CC(C)N3C(=O)C2CCC2)CC1` (stereo unspecified), which Potency is on record?
Answer: inconclusive: 29.1 µM [cytotoxic, single point]

Question: For `O=C1c2ccccc2C(O)N1Cc1cccs1` (stereo unspecified), which Potency is on record?
Answer: inactive

Question: With `Cc1ccc(CNC(=O)c2cc(-c3ccccc3)nn2CC2CC(c3cccnc3)=NO2)cc1` (stereo unspecified) as the compound, how does the Potency read?
Answer: inconclusive: 8.2 µM [rising, partial curve]

Question: For `CCN(CC)S(=O)(=O)c1ccc(N2CCOCC2)c(NC(=O)c2cnccn2)c1`, which Potency is on record?
Answer: inconclusive: 20.6 µM [cytotoxic, single point]

Question: For `CC(c1ccccc1)C1C(C#N)=C(N)OC2=C1C(=O)CC(C)(C)C2` (stereo unspecified), which Potency is on record?
Answer: inactive

Question: For `Cc1nnc(SCC(=O)c2c[nH]c3ccccc23)n1C1CC1`, which Potency is on record?
Answer: inactive

Question: Which Potency does the source give for `CC(C)(C)C1CCc2onc(C(=O)Nc3cnn(Cc4ccc(F)cc4)c3)c2C1` (stereo unspecified) here?
Answer: active: 2.59 µM

Question: With `CCCCN(Cc1ccccc1)c1ncnc2nc[nH]c12` as the compound, how does the Potency read?
Answer: inconclusive: 16.4 µM [cytotoxic, single point]

Question: For `CC1CCN(C(=O)CN(c2ccc(Cl)c(C(F)(F)F)c2)S(C)(=O)=O)CC1`, which Potency is on record?
Answer: inconclusive: 29.1 µM [cytotoxic, single point]

Question: For `O=C(CCc1nnc2ccc(N3CCOCC3)nn12)Nc1ccc(F)cc1F`, which Potency is on record?
Answer: inconclusive: 18.4 µM [rising, single point]

Question: Which Potency does the source give for `C=CCn1c(O)c(N=NC(=O)CNC(=O)c2ccco2)c2ccccc21` here?
Answer: inconclusive: 25.9 µM [cytotoxic, partial curve, poor fit]

Question: Which Potency does the source give for `Cc1cc(C(=O)Cn2nnc3ccccc3c2=O)c(C)n1-c1ccccc1F` here?
Answer: inconclusive: 20.6 µM [cytotoxic, single point]

Question: For `Cc1ccc(-n2c(-c3cnccn3)n[nH]c2=S)c(Br)c1`, which Potency is on record?
Answer: inconclusive: 0.517 µM [rising, full curve, poor fit]

Question: Which Potency does the source give for `O=S1(=O)CCOCCCN1Cc1ccccc1Br` here?
Answer: inconclusive: 7.31 µM [rising, partial curve, poor fit]

Question: For `COc1ccc2cc3cc(C(=O)N4CC(C)CC(C)C4)oc3nc2c1` (stereo unspecified), which Potency is on record?
Answer: inconclusive: 16.4 µM [cytotoxic, partial curve]

Question: For `COC(=O)c1ccc(/C=N/NS(=O)(=O)c2cc(C)ccc2C)cc1`, which activity change, negative = cytotoxicity is on record?
Answer: inconclusive: -35.2%

Question: For `O=C(c1ccccc1)c1ccc(O)cc1O`, which Potency is on record?
Answer: inconclusive: 29.1 µM [rising, single point]

Question: With `CC1(C(=O)Nc2ccc3nc[nH]c3c2)CCN1C(=O)C1(c2ccccc2)CCCC1` (stereo unspecified) as the compound, how does the Potency read?
Answer: inactive

Question: Which Potency does the source give for `O=C(CN1CCN(Cc2ccccc2Cl)CC1)N/N=C/C=C/c1ccco1` here?
Answer: inconclusive: 2.31 µM [cytotoxic, partial curve, poor fit]

Question: Which Potency does the source give for `COc1ccc(Cl)cc1NS(=O)(=O)c1cccc(C(=O)NCC(c2ccco2)N(C)C)c1` (stereo unspecified) here?
Answer: inconclusive: 9.2 µM [cytotoxic, partial curve]

Question: Which Potency does the source give for `O=C(O)C(c1ccccc1)N1C(=O)/C(=C\c2ccc(-c3cccc(Cl)c3)o2)SC1=S` (stereo unspecified) here?
Answer: inactive

Question: Which Potency does the source give for `COC(=O)c1ccc2c(=O)[nH]c(CCl)nc2c1` here?
Answer: inactive

Question: Which Potency does the source give for `O=C(Oc1ccc(Br)cc1C(=O)/C=C/c1ccccc1F)c1ccco1` here?
Answer: inactive

Question: For `COc1ccccc1C(=O)NCCC(=O)N1CCN(c2ccccc2Cl)CC1`, which Potency is on record?
Answer: inconclusive: 7.31 µM [cytotoxic, partial curve]

Question: With `CC1CCN(C(=O)CSc2nnc3ccccn23)CC1` as the compound, how does the Potency read?
Answer: inconclusive: 16.4 µM [cytotoxic, partial curve, poor fit]

Question: Which Potency does the source give for `COc1ccc(Cn2c(CCC(=O)Nc3ccc(C)cc3)nc3cccnc32)cc1` here?
Answer: inconclusive: 7.31 µM [cytotoxic, partial curve]

Question: For `O=C(c1ccc2ccccc2c1)c1cccc(F)c1C(=O)O`, which Potency is on record?
Answer: inactive

Question: For `CCN1CC(CNCc2cn(-c3ccc(OC)cc3)nc2-c2ccccc2Cl)CC1=O` (stereo unspecified), which Potency is on record?
Answer: inconclusive: 7.31 µM [cytotoxic, partial curve]

Question: For `COc1ccc(NC(=O)O/N=C/c2c(C)nn(C(C)(C)C)c2C)cc1`, which Potency is on record?
Answer: inconclusive: 8.2 µM [cytotoxic, partial curve]
